Data as given in PubChem BioAssay AID686943 (Drosophila RNAi Screening Center, 2013).
The deposit covers about 23,000 reagents; shown is an unselected part of those that have a named target and a result. 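Extra replicates exist only for a retested subset of genes; insulin dose and duration not given; both raised and lowered dpERK matter.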 Not all columns of the deposit are shown. Not given: the amount of reagent, the time to read-out.

Aim: 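Fly genes whose loss alters ERK activation after insulin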 (primary screen)
Cells: Drosophila S2R+ haemocyte-like cells expressing YFP-tagged ERK (Rolled)
Reagents: long dsRNA against Drosophila genes
Conditions: insulin stimulation versus unstimulated cells; dose and duration not given
Measured: 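Antibody staining for doubly phosphorylated ERK divided by ERK-YFP signal, as plate z-scores, in insulin-treated and untreated cells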
Reading the numbers: replicate 1, z-score of dpERK with insulin: higher = more active ERK per ERK-YFP after insulin

Pgd [DRSC18697]
- replicate 1, z-score of dpERK with insulin: -0.85

fl(2)d [DRSC07620]
- replicate 1, z-score of dpERK with insulin: -0.92

CR40354 [DRSC20923]
- replicate 1, z-score of dpERK with insulin: -0.79

Theg [DRSC16023]
- replicate 1, z-score of dpERK with insulin: 0.42

Fum1 [DRSC18344]
- replicate 1, z-score of dpERK with insulin: 1.67

Oct-TyrR [DRSC11883]
- replicate 1, z-score of dpERK with insulin: 0.56

CG33270 [DRSC10584]
- replicate 1, z-score of dpERK with insulin: -2.11

CG12672 [DRSC19482]
- replicate 1, z-score of dpERK with insulin: -0.33

CG12998 [DRSC19518]
- replicate 1, z-score of dpERK with insulin: 0.4

CG10931 [DRSC06015]
- replicate 1, z-score of dpERK with insulin: -1.14

SmF [DRSC07397]
- replicate 1, z-score of dpERK with insulin: 0.14

cta [DRSC03769]
- replicate 1, z-score of dpERK with insulin: 0.45

lncRNA:CR43372 [DRSC15041]
- replicate 1, z-score of dpERK with insulin: 0.21

CG14777 [DRSC18563]
- replicate 1, z-score of dpERK with insulin: 1.46

Src64B [DRSC08700]
- replicate 1, z-score of dpERK with insulin: 0.23

The list goes on; the last 3 above are carried over.
lncRNA:CR43372 [DRSC15041]
- replicate 1, z-score of dpERK with insulin: 0.21

CG14777 [DRSC18563]
- replicate 1, z-score of dpERK with insulin: 1.46

Src64B [DRSC08700]
- replicate 1, z-score of dpERK with insulin: 0.23

CDK2AP1 [DRSC19800]
- replicate 1, z-score of dpERK with insulin: -0.42

CG5614 [DRSC15845]
- replicate 1, z-score of dpERK with insulin: 1.16

CG10462 [DRSC02058]
- replicate 1, z-score of dpERK with insulin: -0.82

Prosbeta4R2 [DRSC00503]
- replicate 1, z-score of dpERK with insulin: -0.31

dpr19 [DRSC02237]
- replicate 1, z-score of dpERK with insulin: -0.27

l(1)G0289 [DRSC18215]
- replicate 1, z-score of dpERK with insulin: 1.89

CG3513 [DRSC00608]
- replicate 1, z-score of dpERK with insulin: 0.32

CG33757 [DRSC05159]
- replicate 1, z-score of dpERK with insulin: 0.34

CG15625 [DRSC00460]
- replicate 1, z-score of dpERK with insulin: -0.31

Srp54k [DRSC11289]
- replicate 1, z-score of dpERK with insulin: -0.51

kay [DRSC13962]
- replicate 1, z-score of dpERK with insulin: -0.67

kay [DRSC15048]
- replicate 1, z-score of dpERK with insulin: -0.78

kay [DRSC16977]
- replicate 1, z-score of dpERK with insulin: 5.69

CG14427 [DRSC17921]
- replicate 1, z-score of dpERK with insulin: 1.2

CG5033 [DRSC07410]
- replicate 1, z-score of dpERK with insulin: 0.34

lncRNA:CR43409 [DRSC01164]
- replicate 1, z-score of dpERK with insulin: 0.83
